{
  "source": "patent US7098248B2",
  "about": "“Beta-adrenergic blockade reversal of catabolism after severe burn” (Research Development Foundation, priority 2001, dated 2006)",
  "key": {"[1]": {"tested_on": "severely burned (>40% total body surface area) children", "experiment": "Serum glucose, potassium and hormone values", "settings": "two weeks of oral propranolol, mean ± SEM"}, "[2]": {"tested_on": "severely burned (>40% total body surface area) children", "experiment": "Vital signs (hourly heart rate, blood pressure, temperature)"}},
  "data": [
    {"smiles": "CC(C)NCC(O)COc1cccc2ccccc12", "note": "(stereo not shown) [Propranolol, propranolol]", "values": [
      {"measurement": "Cortisol, change from baseline", "setting": "[1]; serum", "value": "-3.1 ± 2.2", "unit": "µg/dL"},
      {"measurement": "Growth hormone, change from baseline", "setting": "[1]; serum", "value": "-1.1 ± 0.9", "unit": "ng/mL"},
      {"measurement": "Insulin, change from baseline", "setting": "[1]; serum", "value": "−29.4 ± 18.5", "unit": "μlU/ml"},
      {"measurement": "Insulin-like growth factor-1, change from baseline", "setting": "[1]; serum", "value": "38 ± 13", "unit": "ng/mL"},
      {"measurement": "Serum glucose, change from baseline", "setting": "[1]", "value": "-30 ± 13", "unit": "mg/dL"},
      {"measurement": "Temperature between groups", "setting": "[2]; result in words", "value": "not statistically different"},
      {"measurement": "Temperature, change from baseline", "setting": "[2]; two weeks of oral propranolol, mean ± SEM", "value": "−0.5 ± 0.2", "unit": "°C"}
    ]}
  ]
}
